Results of single-concentration screens

Chains of the proteins cited; added tags and fusions are not shown.
UniProt P9WNZ1, whole entry: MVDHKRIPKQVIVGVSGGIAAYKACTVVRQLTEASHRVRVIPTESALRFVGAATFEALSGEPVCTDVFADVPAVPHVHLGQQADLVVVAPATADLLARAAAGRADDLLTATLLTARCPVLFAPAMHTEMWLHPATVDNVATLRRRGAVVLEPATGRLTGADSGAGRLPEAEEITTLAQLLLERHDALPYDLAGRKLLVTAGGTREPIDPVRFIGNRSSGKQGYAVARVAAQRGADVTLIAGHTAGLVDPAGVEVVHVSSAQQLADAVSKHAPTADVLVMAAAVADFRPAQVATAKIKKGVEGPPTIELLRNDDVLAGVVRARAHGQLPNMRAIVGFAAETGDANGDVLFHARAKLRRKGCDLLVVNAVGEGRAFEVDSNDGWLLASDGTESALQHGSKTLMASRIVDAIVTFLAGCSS

Source: ChEMBL document CHEMBL3988442, “University of Dundee, Small-Polar-MMV Screening Library” (2021).

Leishmania in macrophages: 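Cell assay of Leishmania donovani living inside macrophages; the read-out is not stated. Compounds at 30 µM. Higher reads as stronger inhibition (inferred: compounds with an IC50 in retests scored well above the rest). Size under these conditions: about 69,000 compounds, about 1,000 of them at 50% or above in at least one test.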
CoaBC: 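Enzyme assay of CoaBC with a phosphate dye (Biomol Green) read at 650 nm. Target: Coenzyme A biosynthesis protein CoaBC, Mycobacterium tuberculosis (UniProt P9WNZ1). Compounds at 30 µM. Higher reads as stronger inhibition, judged from the few compounds that gave an IC50. Most strong results did not repeat in a second test. Of about 67,000 compounds tested this way, about 40 (0.06%) reached 50% or more in at least one test.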

Results are given as percent effect.
The record does not define 0% and 100%; most values in the screen are far below 50% and negative numbers occur (in some assays of this library far below -100).
This is an unselected part of the compounds tested.
Two or more numbers in one place are separate tests of the same structure; such repeats can differ widely.
A dash means the value is not listed here; it may have been measured.

Compound | Leishmania in macrophages | CoaBC
CS(=O)(=O)N1CCC2(CC1)COC(COc1cccnc1)C2 (configuration not stated) | - | -0.2037%
CC(C)c1nnc2n1CCN(C(=O)c1ccc(OCC(N)=O)cc1)C2 | -0.7407% | 7.949%
Cn1nnc2c1C(COCc1ccccn1)CN(C(=O)c1cccs1)C2 (configuration not stated) | - | 11.83%
COCCN1C(=O)[C@H]2CC[C@@H]1CN(S(=O)(=O)c1ccc(OC)cc1)C2 | - | 7.673%
CN(C)CCOc1ccc(N(C)S(=O)(=O)c2cnn(C)c2)cc1 | 11.67% | 9.529%
COc1ccccc1CCN1CCCC(CN(C)Cc2ccc(C)o2)C1 (configuration not stated) | 51.06% | 2.152%
O=C(CCc1ccncc1)N1CCCC(n2cccn2)C1 (configuration not stated) | 8.374% | 7.478%
CCc1nc2n(n1)CCCC2Nc1nc(C(C)C)ns1 (configuration not stated) | 23.01% | 3.075%
O=C(Cn1nc(Br)nc1Br)N1CCOCC1 | 11.15% | 15.88%
CCN1CCC2(COCc3c(C)nc(N4CCOCC4)nc32)C1 (configuration not stated) | -58.7% | -9.346%
CC(C)c1nnc2n1CCN(c1nn3cc(C(C)(C)C)nc3s1)C2 | 5.584% | 0%
Cc1noc(C)c1C(=O)N1CCCC(c2cc(C(F)(F)F)[nH]n2)C1 (configuration not stated) | -33.03% | 4.592%
Cc1nc(CO[C@@H]2CN(Cc3cccnc3)[C@@H]3COC[C@@H]32)cs1 | - | 2.836%
CN(c1ccc(OCc2cnc(Cl)s2)cc1)S(C)(=O)=O | 20.82% | -
O=C(Nc1ccccc1)N1CCC(N2Cc3ncccc3C2=O)CC1 | -31.54% | 1.241%
Cc1ccccc1-c1cncc(C2CCN(C(=O)CN(C)C)CC2)n1 | -32.32% | 0%
CC(C)(C)c1ncc(C(=O)N2CCN(C(=O)c3ccc[nH]3)CC2)c(O)n1 | 13.89% | -2.302%
CNS(=O)(=O)c1ccc(C(=O)NCCNc2ncccn2)cc1 | 5.635% | 8.514%
CCN1CC2(CCC1=O)CCN(C(=O)c1cn3cccnc3n1)CC2 | 50.01% | -0.6329%
Cc1ccnc(NC(=O)c2ccc(Cl)o2)c1 | 22.02% | -3.871%
c1ccc2nc(N3CCCC3)c(NCc3nnc4n3CCC4)nc2c1 | -21.91% | 3.831%
O=C(O)C(F)(F)F.O=C(c1cnccn1)N1CCOC2(CCN(Cc3ccsc3)CC2)C1 | 27.93% | -
CCCn1c(C)c(CC(=O)NCCNC(C)=O)c2c1CC(C)(C)CC2=O | 22.2% | 2.538%
Cn1nc(C#N)c2c1CN(C(=O)c1c[nH]cn1)CCC2 | 4.392% | 0.7389%
Cc1ccc(OCc2occc2C(=O)N2CCCCC(N)C2)cc1 (configuration not stated) | 32.35% | 3.145%
[H][C@@]12CCC(=O)N(CCc3c[nH]cn3)[C@]1([H])CCN(Cc1coc(C)n1)C2 | 18.7% | -
c1cncc(CN2CCC(c3ccc4c(c3)OCO4)CC2)c1 | - | 0%
CC(C)Cn1cncc1CNC(=O)c1cccc(Cn2cccn2)c1 | 2.214% | 0.4274%
OCCN(Cc1ccccc1)Cc1nc(-c2ccc3c(c2)OCO3)no1 | -9.567% | -4.578%
O=C(NCc1cccs1)c1nc2c(o1)CN(CC1CC1)C2 | - | 2.447%
COC(=O)c1ccc(C(=O)NCC2(O)CCOCC2)cc1 | -39.87% | 0.361%
O=C1CCC(C(=O)Nc2cnn(-c3ccccc3Cl)c2)N1 (configuration not stated) | 20.84% | -3.69%
CCS(=O)(=O)N1CCC2(CC(=O)N(c3ccccc3C)C2)C1 (configuration not stated) | 5.443% | 2.445%
Cc1cnc(CN2CCCC(c3cc(C(N)=O)[nH]n3)C2)o1 (configuration not stated) | 5% | 0.1186%
Cc1occc1C(=O)NCC(O)c1ccc(Cl)s1 (configuration not stated) | 18.57% | 1.474%
O=C(c1ccc(Cn2cnnn2)cc1)N1CC[C@H](CO)[C@H](O)C1 | 15.88% | -2.751%
Cc1cccc(CN2CCc3nnc(CN4CCCCC4)n3CC2)n1.O=C(O)C(F)(F)F.O=C(O)C(F)(F)F | -1.539% | -
Cc1cnn(CC2CCCN2C(=O)c2cc(C)nc3[nH]nc(C)c23)c1 (configuration not stated) | 1.862% | -7.507%
CN1CCC(N(C)C(=O)CCc2ccc(F)c(F)c2)C1=O (configuration not stated) | -5.537% | 11.98%
Cc1ccc(NC(=O)NCCc2cnn(C)c2)c(N(C)C)n1 | 14.54% & -5.289% | -3.038%
CCc1nc(C2CCCN2C(=O)CCCn2cccn2)no1 (configuration not stated) | 9.615% | 0.527%
CCc1nc(CN2CCCN(C(=O)c3cn[nH]c3C)CC2)cs1 | -8.382% | 6.526%
Cc1nc(C2CCCN2Cc2cc(Cl)c3c(c2)OCCO3)no1 (configuration not stated) | -16.96% | 1.241%
O=C(Nc1cnc(C2CC2)nc1)N1CCC(CN2CCCC2)C1 (configuration not stated) | 24.89% | 4.989%
CN(Cc1nnc(C2CC2)n1C)C1CCN(CCc2ccncc2)C1 (configuration not stated) | -311.5% | 1.333%
O=C1CO[C@H]2CN(S(=O)(=O)c3ccccc3)C[C@H]2N1c1ccccc1 | - | 3.386%
c1ccc(OCCN2CCN(c3ncnc4[nH]ccc34)CC2)cc1 | -4.481% | 8.94%
CCc1nc(C2CCCN2CC(=O)NCCOc2ccccc2)no1 (configuration not stated) | -22.44% | 5.371%
O=C(O)c1ccc(CCNC(=O)C2(c3ccccc3)CC2)cc1 | 11.05% | 10.74%
CN(Cc1ccco1)C(=O)CN1C(=O)c2cc(Cl)c(Cl)cc2C1=O | 21.56% | 4.982%
Cc1cc2c(=O)n3c(nc2s1)CCN(C(=O)c1ccncc1)CC3 | 13% | -1.389%
O=C1CCCN1C(CNS(=O)(=O)C1CC1)Cc1cccc(F)c1 (configuration not stated) | 2.176% & 14.87% | 2.799%
CSc1nccc(N2CCC3(CCCN(Cc4cccc(C)c4)C3)C2)n1 (configuration not stated) | 3.295% | 10.69%
CC(C)c1nn(C)c(N(C)C)c1CNCc1cccc(CN(C)C)c1.Cl | 12.01% | -
Cc1ccc(CNC(=O)NC2CCCN(c3ncccn3)C2)cn1 (configuration not stated) | 14.56% | 1.474%
O=C(c1ccnc(-n2ccnc2)c1)N1CCCC(n2cccn2)C1 (configuration not stated) | 20.72% | -0.1242%
Cc1c(CN2CCCC2(C)C(=O)N2CCOCC2)cnn1C (configuration not stated) | 19.49% | 14.22%
COc1ccc(-c2n[nH]cc2CN(C)Cc2nccn2C)c(F)c1 | 12.63% | -6.024%
Cc1ccc(C(=O)O)cc1S(=O)(=O)Nc1nn(-c2ccccc2)cc1C | -10.24% | -4.051%
CC(C)CC(=O)N1CC[C@H]2C[C@H](c3nccs3)O[C@@H]2C1 | - | -2.005%
CCCC(=O)N1CCCC1(C)c1nc(C)no1 (configuration not stated) | 8.577% | 8.147%
CC(NCCNS(=O)(=O)c1cccc(Cl)c1)C1CCOCC1 (configuration not stated) | 31.25% | 0%
Cc1cccc(CN2CCc3cc(C(=O)O)c(N(C)C)nc3CC2)n1 | - | -4.316%
Cc1cc(CN(C)C(=O)c2ccc(N(C)C)nc2)no1 | 6.586% | 0.7833%
CCC(=O)N1CCC2(CC1)CN(CCO)Cc1ccccc12.O=C(O)C(F)(F)F | -12.04% | -
COc1ccccc1C(=O)Nc1c(F)c(C(=O)N2CCCC2)nn1C | 5.307% | -1.446%
Cc1nc(CN2CCCC(c3nc(C)n4c(C)c(C)sc34)C2)co1 (configuration not stated) | -2.551% & 13.93% | -2.433%
CCC(C(=O)NCC1CCN(c2cnn(C)c(=O)c2)CC1)n1cccn1 (configuration not stated) | 24.8% | 6.424%
O=C(COc1coc(CN2CCOCC2)cc1=O)Nc1ccccc1F | -10.19% | -0.2525%
CCOc1cc(C)nc(N2CCN(C(=O)c3cnc[nH]3)CC2)n1 | 13.19% | 7.908%
CO[C@H]1CN(CC2CCOCC2)[C@@H]2CCCO[C@H]12 | - | 1.609%
CN1C(=O)CC2(CCN(S(=O)(=O)c3cccs3)CC2)c2ccccc21 | 23.32% | -
CN(C(=O)CN1CCC(c2cc3ccccc3[nH]2)CC1)C(C)(C)C#N | 20.63% | -0.319%
CC(C)N1CCN(c2ccc3ccc(C(=O)NC4CCCC4)cn23)CC1.O=C(O)C(F)(F)F | 37.85% | -
COCCN(C)C(=O)c1cc2c(s1)CCN2C(=O)C1CC1 | 15.89% | -1.22%
[H][C@]12CC[C@@]3(N=C(C)N(CC4CC4)C3=O)[C@@]1([H])CN(S(=O)(=O)CC(C)C)C2 | 16.21% | -
O=C(c1ccsc1)N1CC(c2nc(-c3ccc[nH]c3=O)no2)C1 | -3.259% & -7.46% | -4.44%
Cc1nc(N2CCN(C)CC2)ncc1C(=O)N1CC(C)(C)C(C)(O)C1 (configuration not stated) | -7.38% | -2.643%

Once more, the final 7:

Compound	Leishmania in macrophages	CoaBC
CN1C(=O)CC2(CCN(S(=O)(=O)c3cccs3)CC2)c2ccccc21	23.32%	-
CN(C(=O)CN1CCC(c2cc3ccccc3[nH]2)CC1)C(C)(C)C#N	20.63%	-0.319%
CC(C)N1CCN(c2ccc3ccc(C(=O)NC4CCCC4)cn23)CC1.O=C(O)C(F)(F)F	37.85%	-
COCCN(C)C(=O)c1cc2c(s1)CCN2C(=O)C1CC1	15.89%	-1.22%
[H][C@]12CC[C@@]3(N=C(C)N(CC4CC4)C3=O)[C@@]1([H])CN(S(=O)(=O)CC(C)C)C2	16.21%	-
O=C(c1ccsc1)N1CC(c2nc(-c3ccc[nH]c3=O)no2)C1	-3.259% & -7.46%	-4.44%
Cc1nc(N2CCN(C)CC2)ncc1C(=O)N1CC(C)(C)C(C)(O)C1 (configuration not stated)	-7.38%	-2.643%